The exact form of at least one protein or probe is not confirmed. For some assays here: At least one result comes from cells or an extract, where the contact may be indirect. For some assays here: The comparison behind a weaker result is the experiment's own reference, which may not be listed here. For some assays here: Protein sequences can lack the tags named with them. For some assays here: At least one verdict was read from the data and is not stated in words by the source.

Protein sequences, listed by entry. Tags and fused reporters are not part of them. Lines headed by an entry give the natural chain unless they say otherwise; changes in a name come on top.
UniProt P84025: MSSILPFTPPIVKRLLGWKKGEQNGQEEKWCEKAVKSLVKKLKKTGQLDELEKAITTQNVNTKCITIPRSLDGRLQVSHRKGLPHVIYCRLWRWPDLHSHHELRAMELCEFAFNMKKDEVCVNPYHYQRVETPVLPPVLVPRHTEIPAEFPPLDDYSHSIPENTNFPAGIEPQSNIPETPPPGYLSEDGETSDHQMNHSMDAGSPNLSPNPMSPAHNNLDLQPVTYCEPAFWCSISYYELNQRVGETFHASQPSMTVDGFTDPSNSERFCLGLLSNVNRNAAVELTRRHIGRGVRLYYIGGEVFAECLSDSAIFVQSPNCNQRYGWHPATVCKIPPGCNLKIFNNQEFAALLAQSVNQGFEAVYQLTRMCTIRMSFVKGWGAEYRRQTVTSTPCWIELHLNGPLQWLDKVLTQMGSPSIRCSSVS

In data set [1] the target is pSmad3 (endogenous, nuclear extract of TGF-b1-treated VSMC) (Rattus norvegicus (rat VSMC)) (UniProt P84025). Kind of data set: EMSA supershift (anti-pSmad3 abrogates band). The settings on record: TGF-b1-treated cells, band also lost on Smad3 knockdown; EMSA: LightShift kit (Pierce), antibody 60 min at 4 C then probe 20 min; protein in an extract; label: 5'-biotin. In general terms: In EMSA bound probe runs differently from free probe, usually more slowly.

For data set [2] the target is unchanged. The experiment in a line: southwestern blot. The conditions noted are these: Southwestern: 30 mM HEPES pH 7.6, 50 mM KCl, 10 mM MgCl2, 0.1 mM EDTA, 1 mM DTT, 5% BLOTTO, 0.1% BSA, 1 mg/ml poly(dI-dC), 4 C overnight, protein in an extract, label: 5'-biotin.
For data set [3], the target named is T1, Smad4 (endogenous, nuclear extract) (Rattus norvegicus (rat VSMC)) (UniProt O70437).
T1 sequence (looked up, limits assumed): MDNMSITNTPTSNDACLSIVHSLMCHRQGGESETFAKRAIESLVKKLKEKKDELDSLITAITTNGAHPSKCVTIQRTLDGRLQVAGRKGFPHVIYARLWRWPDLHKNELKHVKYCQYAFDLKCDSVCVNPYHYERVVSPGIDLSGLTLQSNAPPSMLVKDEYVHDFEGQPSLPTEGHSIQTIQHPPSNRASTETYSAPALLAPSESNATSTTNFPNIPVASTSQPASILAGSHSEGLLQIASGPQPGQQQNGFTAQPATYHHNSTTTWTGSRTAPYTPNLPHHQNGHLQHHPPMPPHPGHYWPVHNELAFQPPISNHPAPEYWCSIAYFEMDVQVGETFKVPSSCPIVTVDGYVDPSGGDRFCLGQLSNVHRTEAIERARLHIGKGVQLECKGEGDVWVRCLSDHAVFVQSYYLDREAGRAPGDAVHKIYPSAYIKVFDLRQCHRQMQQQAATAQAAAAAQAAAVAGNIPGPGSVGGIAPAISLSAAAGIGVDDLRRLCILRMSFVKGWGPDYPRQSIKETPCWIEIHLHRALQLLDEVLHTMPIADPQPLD
Kind of data set: southwestern blot. The conditions noted are these: 10 mM Mg2+, Southwestern: 30 mM HEPES pH 7.6, 50 mM KCl, 10 mM MgCl2, 0.1 mM EDTA, 1 mM DTT, 5% BLOTTO, 0.1% BSA, 1 mg/ml poly(dI-dC), 4 C overnight, protein in an extract, label: 5'-biotin.

Data set [4] has as its system recombinant Smad4. Kind of data set: southwestern blot. The conditions noted are these: PARP1/NAD+/active DNA, poly(ADP-ribosyl)ation increased binding, 3AB inhibited, 10 mM Mg2+; Southwestern: 30 mM HEPES pH 7.6, 50 mM KCl, 10 mM MgCl2, 0.1 mM EDTA, 1 mM DTT, 5% BLOTTO, 0.1% BSA, 1 mg/ml poly(dI-dC), 4 C overnight; recombinant protein; label: 5'-biotin.
Data set [5] concerns recombinant pSmad3. The experiment in a line: southwestern blot. The conditions noted are these: PARP1/NAD+/active DNA, poly(ADP-ribosyl)ation increased binding, 3AB inhibited, 10 mM Mg2+; Southwestern: 30 mM HEPES pH 7.6, 50 mM KCl, 10 mM MgCl2, 0.1 mM EDTA, 1 mM DTT, 5% BLOTTO, 0.1% BSA, 1 mg/ml poly(dI-dC), 4 C overnight; recombinant protein; label: 5'-biotin.

As for “AGTATGTCTAGACTGA (double strand) [SBE consensus]”, the binding result is “binds” in data set [1]; “binds” in data set [2] (TGF-b1-treated cells, 10 mM Mg2+, band lost on Smad3 siRNA); “binds more weakly” in data set [2] (TGF-b1 plus PARP1 siRNA, 3AB or PJ34, 10 mM Mg2+); “binds” in data set [2] (extract of non-treated cells (phosphorylation not stated) with NAD+/active DNA, increased, inhibited by 3AB, 10 mM Mg2+); “binds” in data set [3] (NAD+/active DNA (text: with PARP1), increased, inhibited by 3AB); “binds” in data set [3] (TGF-b1-treated cells, band lost on Smad4 siRNA). Further, the binding result in data set [4] and in data set [5] was “binds” each time.

Source of the values: publication PMC3205050.
